{
  "sequences": {"note": "By UniProt entry, the sequences of proteins in these tests, tags left out.", "UniProt Q0JBA9, entry or part of it": "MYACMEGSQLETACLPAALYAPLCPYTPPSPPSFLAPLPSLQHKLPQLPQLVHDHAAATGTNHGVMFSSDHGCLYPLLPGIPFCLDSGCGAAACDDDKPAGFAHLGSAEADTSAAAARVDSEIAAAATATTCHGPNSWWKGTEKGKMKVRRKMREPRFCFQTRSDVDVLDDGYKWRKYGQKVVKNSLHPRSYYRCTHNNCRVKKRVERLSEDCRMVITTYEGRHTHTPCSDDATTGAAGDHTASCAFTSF"},
  "source": "paper PMC7819943",
  "about": "“Rice protein-binding microarrays: a tool to detect cis-acting elements near promoter regions in rice”",
  "note": "Some of the results follow.",
  "data": [
    {"target": "OsWRKY34 (Oryza sativa, UniProt Q0JBA9 1-250)", "experiment": "protein-binding microarray (RPBM); PBS, 2% BSA, 51.3 ng/ul salmon testes DNA, 50 uM zinc acetate, 200 nM TF, 25 C, 1 h; high values mean tight binding", "conditions": "protein: recombinant; tags: N-terminal polyhistidine and DsRed monomer fusion (pET32a); label: CyDye5-dUTP incorporated in the synthesized complementary strand; 3' TTTTT single-stranded linker to array surface; dsDNA, one strand shown", "method_in_brief": "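The binding signal is fluorescence intensity per array feature (arbitrary units). Readings came from an Axon 4000B scanner after a washed, 2% BSA-blocked, double-stranded custom Agilent array had been incubated for 1 h at 25 °C with 200 nM protein and 50 µM zinc acetate. The protein was a Ni–NTA-purified transcription factor fused N-terminally to polyhistidine and DsRed, expressed in E. coli BL21-CodonPlus.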", "values": [
      {"sequence": "AATTTTTTCATGAACTTTCTCTTGTCATGCTTGATGTGTACGGAGTCACCTAGTGCAG", "binding signal": "8400 fluorescence intensity (a.u.)"},
      {"sequence": "AGAAAAACACGAGGTGAAATCTCATACTTATTTTCCTTCACGGAGTCACCTAGTGCAG", "binding signal": "8210 fluorescence intensity (a.u.)"},
      {"sequence": "CTGTATAAACTTCTAACCTCTGATTTCTTTCACTACTGATCGGAGTCACCTAGTGCAG", "binding signal": "8200 fluorescence intensity (a.u.)"},
      {"sequence": "CCTTTATCGTCTCAACTATTGTAAACATATGGTCTCTAAACGGAGTCACCTAGTGCAG", "binding signal": "8220 fluorescence intensity (a.u.)"},
      {"sequence": "CTTCTCGGTTGTTCTCTTTGTTCCGTGATGGCTTTTTTGGCGGAGTCACCTAGTGCAG", "binding signal": "11600 fluorescence intensity (a.u.)"},
      {"sequence": "ATATAGCTAAGTCCTAATCCATTTTCAACCCTTTGTTAATCGGAGTCACCTAGTGCAG", "binding signal": "9760 fluorescence intensity (a.u.)"},
      {"sequence": "TATTGGCTTAGATCGCTGACTGTTATTCATTATCCTTTCTCGGAGTCACCTAGTGCAG", "binding signal": "9800 fluorescence intensity (a.u.)"},
      {"sequence": "ACCTTCTCGATTCACCGCGCTTATGCGGCCACTGCACAAACGGAGTCACCTAGTGCAG", "binding signal": "11400 fluorescence intensity (a.u.)"},
      {"sequence": "TCTAACTCGTTTTACCTATCTTCTCTAATCCTCCTCAAACCGGAGTCACCTAGTGCAG", "binding signal": "9550 fluorescence intensity (a.u.)"},
      {"sequence": "CGATCAACGTTTGACTATTTGTTTTATTCAAAATTTTTGTCGGAGTCACCTAGTGCAG", "binding signal": "9460 fluorescence intensity (a.u.)"},
      {"sequence": "TGACATGGTATATCTTCTATTTAGACATGATGATCTTTTACGGAGTCACCTAGTGCAG", "binding signal": "9610 fluorescence intensity (a.u.)"},
      {"sequence": "GCCTCCGCCTCCGCCCGCCGCCGACGACTCTCCGACTCCCCGGAGTCACCTAGTGCAG", "binding signal": "10100 fluorescence intensity (a.u.)"},
      {"sequence": "CATGGCGACCTCGCCTCGTGTTCCCTTTCCTAACCGCCGCCGGAGTCACCTAGTGCAG", "binding signal": "9860 fluorescence intensity (a.u.)"},
      {"sequence": "TGTTAAGAAAAAAAAAATAGAAAAACGTCTCAATTGTAAGCGGAGTCACCTAGTGCAG", "binding signal": "8170 fluorescence intensity (a.u.)"},
      {"sequence": "AGGTTCTTGACTCACCAGACCCATTTGTTGCCTCAGCCACCGGAGTCACCTAGTGCAG", "binding signal": "8620 fluorescence intensity (a.u.)"},
      {"sequence": "AGCCAGAGGTACAAGTGGTGCCTGATGATATATACTTGTTCGGAGTCACCTAGTGCAG", "binding signal": "8460 fluorescence intensity (a.u.)"},
      {"sequence": "ATTGGGCTCTGTTTAATTTGTGGTGGGCCGATGTCAAAGGCGGAGTCACCTAGTGCAG", "binding signal": "9890 fluorescence intensity (a.u.)"},
      {"sequence": "ATTTTCGTCGCGTCAACTTATATACGAAAGTTAATTAATGCGGAGTCACCTAGTGCAG", "binding signal": "8160 fluorescence intensity (a.u.)"},
      {"sequence": "GGGGTTTGCTGCAATTTGTTGTGTTCGTCGGCGGCGAGCGCGGAGTCACCTAGTGCAG", "binding signal": "10800 fluorescence intensity (a.u.)"},
      {"sequence": "GGCGCCTGGAGGCCTCCGTCGTTTGTGCCGCCCCGTCGCCCGGAGTCACCTAGTGCAG", "binding signal": "8780 fluorescence intensity (a.u.)"},
      {"sequence": "GTCGGTCGGTCTCCTCCCACCACCCGCCGCCGCCGCCATGCGGAGTCACCTAGTGCAG", "binding signal": "10700 fluorescence intensity (a.u.)"},
      {"sequence": "TTTCAATTTTTTCACTACATCGTTCTAGTTTTTTCAAACTCGGAGTCACCTAGTGCAG", "binding signal": "8470 fluorescence intensity (a.u.)"},
      {"sequence": "GAATGGCGACAAGTTGTGTTTTGCTCGTACCGTATTCAGTCGGAGTCACCTAGTGCAG", "binding signal": "11000 fluorescence intensity (a.u.)"},
      {"sequence": "GCCGCCGCCTGCTGCACTGACCTCCCCGCCGTCGTCGCGACGGAGTCACCTAGTGCAG", "binding signal": "9730 fluorescence intensity (a.u.)"},
      {"sequence": "GACTAAATATGATCTTACGCTGCATTTATTTTTGGAATTTCGGAGTCACCTAGTGCAG", "binding signal": "8070 fluorescence intensity (a.u.)"},
      {"sequence": "GTTGGTTTATTTTGAGACGGAGAGACTATATGTGTTTGGACGGAGTCACCTAGTGCAG", "binding signal": "8520 fluorescence intensity (a.u.)"},
      {"sequence": "AAGAAGGGTCAGGAGGGTTGGGAGGGGACGCATTGCAATGCGGAGTCACCTAGTGCAG", "binding signal": "11700 fluorescence intensity (a.u.)"},
      {"sequence": "TACTCTAGCACACATGTTTAAATGTTTTCGTCTTTTAGAACGGAGTCACCTAGTGCAG", "binding signal": "8100 fluorescence intensity (a.u.)"},
      {"sequence": "TATTTCATATTCTTCATTCCACTTGCTATGATACAATGTTCGGAGTCACCTAGTGCAG", "binding signal": "9860 fluorescence intensity (a.u.)"},
      {"sequence": "CCTCCTGCTCGATCCATCCATCCATCCACCCGAACCCTAGCGGAGTCACCTAGTGCAG", "binding signal": "9570 fluorescence intensity (a.u.)"},
      {"sequence": "TGCATATATATCCAGCCGTTACCGAAACTGCTTGCATCACCGGAGTCACCTAGTGCAG", "binding signal": "8320 fluorescence intensity (a.u.)"},
      {"sequence": "TCCCCAACCTTAGCTAGCTACTACTGTCATGCAACGAATTCGGAGTCACCTAGTGCAG", "binding signal": "8050 fluorescence intensity (a.u.)"},
      {"sequence": "TTTAGTTCTAAACTTTCGCTCCATACTACAACCTTCTCATCGGAGTCACCTAGTGCAG", "binding signal": "9150 fluorescence intensity (a.u.)"},
      {"sequence": "GCTTTTCTCAATCTCCATAGCTTTGGCATCGTCCACCTATCGGAGTCACCTAGTGCAG", "binding signal": "8210 fluorescence intensity (a.u.)"},
      {"sequence": "CGCTGCCCTCCGCCCACCGCTGCTCCGTCTACCGCGCTCGCGGAGTCACCTAGTGCAG", "binding signal": "8960 fluorescence intensity (a.u.)"},
      {"sequence": "TTTTGTGTGTGTAGGGGATAATAATTAAAGGGGAGATTTTCGGAGTCACCTAGTGCAG", "binding signal": "9080 fluorescence intensity (a.u.)"},
      {"sequence": "GTTGCCACCTGCCCTGTTCGTGTTTGCGATTGATTTGTACCGGAGTCACCTAGTGCAG", "binding signal": "10200 fluorescence intensity (a.u.)"},
      {"sequence": "CTCATTGGCGCCGTGATCTAATATAATGGTAAACGTTGACCGGAGTCACCTAGTGCAG", "binding signal": "13000 fluorescence intensity (a.u.)"},
      {"sequence": "TTCCTACATACATGCATGCATACTCAATTTTCATGCTTAACGGAGTCACCTAGTGCAG", "binding signal": "8820 fluorescence intensity (a.u.)"},
      {"sequence": "CAGATCCGCCGGTGCATGTTTGACCGTTCGTCTTATTCAACGGAGTCACCTAGTGCAG", "binding signal": "13100 fluorescence intensity (a.u.)"},
      {"sequence": "GCTATACATCTTTCCACTACTTCTCCTCAGCTCGCTTTCCCGGAGTCACCTAGTGCAG", "binding signal": "8130 fluorescence intensity (a.u.)"},
      {"sequence": "AAACTTATATGTTTGTGGGGTGATATATTTCATATTAATCCGGAGTCACCTAGTGCAG", "binding signal": "8080 fluorescence intensity (a.u.)"}
    ]}
  ]
}
